Results are given in words; binding and its absence hold for the method and conditions named. In cells and extracts the contact can be indirect. Some results given as binding are weak or reduced against the parent protein; the word gives no strength. For some assays here: Tags and fused reporters may be left off the sequences shown.

The chains behind the UniProt entries cited, without tags or fusion partners.
UniProt P97929: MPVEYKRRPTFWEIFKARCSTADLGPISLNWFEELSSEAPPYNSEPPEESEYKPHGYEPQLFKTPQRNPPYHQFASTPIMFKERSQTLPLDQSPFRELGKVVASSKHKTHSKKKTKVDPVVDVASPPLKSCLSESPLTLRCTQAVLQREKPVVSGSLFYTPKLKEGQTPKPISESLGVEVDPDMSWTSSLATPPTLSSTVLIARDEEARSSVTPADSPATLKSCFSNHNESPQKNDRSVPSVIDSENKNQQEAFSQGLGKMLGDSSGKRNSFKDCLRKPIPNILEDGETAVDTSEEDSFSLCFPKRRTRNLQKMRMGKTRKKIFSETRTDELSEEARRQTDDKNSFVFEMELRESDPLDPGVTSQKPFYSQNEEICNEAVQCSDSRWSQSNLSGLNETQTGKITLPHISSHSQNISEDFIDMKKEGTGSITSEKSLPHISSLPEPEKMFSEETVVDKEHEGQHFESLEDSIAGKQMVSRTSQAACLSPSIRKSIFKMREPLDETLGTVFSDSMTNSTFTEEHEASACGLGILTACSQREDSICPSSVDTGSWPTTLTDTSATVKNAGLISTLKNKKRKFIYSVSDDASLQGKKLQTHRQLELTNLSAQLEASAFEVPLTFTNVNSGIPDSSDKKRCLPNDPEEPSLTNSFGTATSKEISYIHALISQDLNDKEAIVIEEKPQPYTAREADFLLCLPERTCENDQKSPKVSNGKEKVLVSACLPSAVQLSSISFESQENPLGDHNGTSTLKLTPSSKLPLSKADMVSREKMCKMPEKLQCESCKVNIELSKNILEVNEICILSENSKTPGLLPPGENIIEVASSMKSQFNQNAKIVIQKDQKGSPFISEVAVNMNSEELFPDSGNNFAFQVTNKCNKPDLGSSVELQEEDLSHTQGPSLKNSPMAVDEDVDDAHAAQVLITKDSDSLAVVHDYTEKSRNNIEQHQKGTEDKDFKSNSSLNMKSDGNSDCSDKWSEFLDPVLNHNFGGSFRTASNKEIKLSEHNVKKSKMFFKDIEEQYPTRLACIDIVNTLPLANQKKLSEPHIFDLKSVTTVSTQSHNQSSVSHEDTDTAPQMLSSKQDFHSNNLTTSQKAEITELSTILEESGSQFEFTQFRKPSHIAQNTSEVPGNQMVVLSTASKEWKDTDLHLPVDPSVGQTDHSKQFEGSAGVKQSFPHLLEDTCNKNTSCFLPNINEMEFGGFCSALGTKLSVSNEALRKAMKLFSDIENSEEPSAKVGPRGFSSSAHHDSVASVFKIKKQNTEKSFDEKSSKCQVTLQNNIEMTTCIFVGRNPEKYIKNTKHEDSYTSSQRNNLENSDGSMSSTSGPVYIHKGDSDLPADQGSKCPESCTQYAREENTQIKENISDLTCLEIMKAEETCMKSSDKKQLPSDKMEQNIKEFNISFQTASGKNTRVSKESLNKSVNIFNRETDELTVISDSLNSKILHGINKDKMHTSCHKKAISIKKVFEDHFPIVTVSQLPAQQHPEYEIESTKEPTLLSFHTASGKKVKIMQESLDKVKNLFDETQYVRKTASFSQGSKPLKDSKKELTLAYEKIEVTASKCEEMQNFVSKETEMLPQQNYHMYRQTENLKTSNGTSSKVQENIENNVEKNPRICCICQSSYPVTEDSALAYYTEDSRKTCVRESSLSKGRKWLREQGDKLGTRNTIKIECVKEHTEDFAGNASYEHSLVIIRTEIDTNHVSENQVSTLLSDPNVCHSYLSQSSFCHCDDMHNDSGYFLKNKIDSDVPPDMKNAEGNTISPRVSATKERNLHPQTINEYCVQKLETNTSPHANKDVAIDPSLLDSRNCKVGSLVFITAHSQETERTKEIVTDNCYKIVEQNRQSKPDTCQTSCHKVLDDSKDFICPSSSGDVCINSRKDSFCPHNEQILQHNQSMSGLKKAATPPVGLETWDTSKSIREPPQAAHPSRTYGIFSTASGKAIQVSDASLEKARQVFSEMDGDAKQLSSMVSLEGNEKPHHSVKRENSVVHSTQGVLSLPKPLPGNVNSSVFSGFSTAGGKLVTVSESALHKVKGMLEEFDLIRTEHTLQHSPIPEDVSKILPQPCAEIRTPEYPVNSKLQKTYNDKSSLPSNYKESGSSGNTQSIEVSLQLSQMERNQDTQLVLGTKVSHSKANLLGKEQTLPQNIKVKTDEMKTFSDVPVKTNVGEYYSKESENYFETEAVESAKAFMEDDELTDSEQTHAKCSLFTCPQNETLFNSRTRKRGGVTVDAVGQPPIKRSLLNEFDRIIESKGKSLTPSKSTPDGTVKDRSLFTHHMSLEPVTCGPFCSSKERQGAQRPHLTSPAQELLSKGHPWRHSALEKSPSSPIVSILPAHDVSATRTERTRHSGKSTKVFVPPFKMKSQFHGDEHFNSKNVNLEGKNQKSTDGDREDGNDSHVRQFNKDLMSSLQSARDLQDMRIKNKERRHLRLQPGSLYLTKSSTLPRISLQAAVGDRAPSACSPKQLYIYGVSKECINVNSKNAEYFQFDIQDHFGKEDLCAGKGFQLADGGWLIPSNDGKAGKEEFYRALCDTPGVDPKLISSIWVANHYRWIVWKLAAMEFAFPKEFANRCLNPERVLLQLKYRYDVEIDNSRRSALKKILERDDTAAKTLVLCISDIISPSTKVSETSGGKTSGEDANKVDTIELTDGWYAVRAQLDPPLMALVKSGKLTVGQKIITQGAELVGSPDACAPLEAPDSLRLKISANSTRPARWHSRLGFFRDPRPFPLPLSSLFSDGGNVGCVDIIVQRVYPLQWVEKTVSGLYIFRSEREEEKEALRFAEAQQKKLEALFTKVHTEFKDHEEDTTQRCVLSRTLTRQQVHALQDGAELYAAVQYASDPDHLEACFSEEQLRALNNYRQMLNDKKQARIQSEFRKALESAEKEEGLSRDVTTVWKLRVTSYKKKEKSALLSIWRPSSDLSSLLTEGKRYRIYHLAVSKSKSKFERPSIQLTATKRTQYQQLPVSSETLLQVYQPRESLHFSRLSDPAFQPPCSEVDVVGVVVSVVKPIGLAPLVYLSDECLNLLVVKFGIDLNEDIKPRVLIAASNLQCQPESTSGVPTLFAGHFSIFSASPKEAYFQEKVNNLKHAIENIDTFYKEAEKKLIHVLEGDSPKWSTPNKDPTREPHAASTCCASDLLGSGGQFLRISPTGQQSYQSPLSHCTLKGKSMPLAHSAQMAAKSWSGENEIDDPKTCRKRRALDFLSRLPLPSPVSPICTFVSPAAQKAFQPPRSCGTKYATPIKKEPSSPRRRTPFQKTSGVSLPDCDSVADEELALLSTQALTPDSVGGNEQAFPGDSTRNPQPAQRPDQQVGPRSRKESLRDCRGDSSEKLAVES

In assay [1] the target is T1, Mouse HSF2BP-GFP (mouse (knock-in allele in mES cells)) (UniProt Q9D4G2).
T1 sequence: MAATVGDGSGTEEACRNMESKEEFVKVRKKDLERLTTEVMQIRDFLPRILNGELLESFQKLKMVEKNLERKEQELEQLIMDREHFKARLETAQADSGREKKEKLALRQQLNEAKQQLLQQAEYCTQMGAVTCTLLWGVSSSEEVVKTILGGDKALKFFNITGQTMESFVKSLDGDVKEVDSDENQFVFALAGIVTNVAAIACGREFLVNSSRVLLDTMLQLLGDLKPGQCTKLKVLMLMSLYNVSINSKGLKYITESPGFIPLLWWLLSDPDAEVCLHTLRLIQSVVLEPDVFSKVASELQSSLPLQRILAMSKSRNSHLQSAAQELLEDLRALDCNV
Description: co-IP.

The target of assay [2] is Mouse full-length BRCA2-GFP (mouse (knock-in allele in mES cells)) (UniProt P97929). Description: co-IP.

Consider “Mouse BRCA2 (Brca2 wt/wt) (from UniProt P97929 1-3329)”, for which, in assay [1], the binding entry is “binds”.

B1: Mouse HSF2BP, natively expressed in ES cells (protein, UniProt Q9D4G2 1-338)
chain: MAATVGDGSGTEEACRNMESKEEFVKVRKKDLERLTTEVMQIRDFLPRILNGELLESFQKLKMVEKNLERKEQELEQLIMDREHFKARLETAQADSGREKKEKLALRQQLNEAKQQLLQQAEYCTQMGAVTCTLLWGVSSSEEVVKTILGGDKALKFFNITGQTMESFVKSLDGDVKEVDSDENQFVFALAGIVTNVAAIACGREFLVNSSRVLLDTMLQLLGDLKPGQCTKLKVLMLMSLYNVSINSKGLKYITESPGFIPLLWWLLSDPDAEVCLHTLRLIQSVVLEPDVFSKVASELQSSLPLQRILAMSKSRNSHLQSAAQELLEDLRALDCNV
As for B1, the binding result in assay [2] is recorded as “binds”.

These data come from publication doi:10.1101/2020.12.29.424679 (bioRxiv, 2020).
